# According to PubChem BioAssay AID493014 (National Center for Advancing Translational Sciences (NCATS), 2011):
# Screen size: about 340,000 compounds; about 170 (0.05%) were called active. This list was built around the results that the source calls inconclusive (neither active nor inactive); the mix of calls is not that of the screen. Calls follow the shape of the dose curve; as a rule, active = well fitted inhibition curve with a large enough effect in the signal ratio, with a control signal flat (not every such curve was filed as active); inconclusive = small, poorly fitted or top-dose-only effect, or effect the other way, or a change in a side signal; inactive = flat fitted curve, though single readings scatter; the % refers to the signal ratio. Potencies beside an inconclusive call are fits to weak or partial responses and may not hold up.
# Assay: qHTS Assay to Find Inhibitors of Chronic Active B-Cell Receptor Signaling;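 as to activity change, negative = inhibition: plate controls were basal doxycycline-induced cells for no effect and cells given 10 µM MG132 for full effect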
# Settings: ABC-DLBCL IkBa-CBG/CBR reporter, luminescence ratio (green luciferase fused to IkBa over red control in TMD8 lymphoma cells), 4 h; activity change, negative = inhibition: at 46.1 µM (top of the series)
# Method in brief: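 Concentration-response series (up to 46 uM) were applied to TMD8 dual-reporter cells for 4 h at 37C with doxycycline. Green/red ratio, after filter-overlap correction, defined %Activity; red signal alone was normalised to basal cells and zero luminescence.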
# Potency is read from the fitted curve at half-maximal effect.
SMILES,"activity change, negative = inhibition",Potency
CCn1cc(Cl)c(C(=O)Nc2nccs2)n1,inconclusive: -6.01%,
Cc1cc2nncn2c2ccccc12,inconclusive: 1.33%,
C/C(CC(=O)Nc1ccc(Cl)c(C(F)(F)F)c1)=N\NC(=O)c1cnccn1,inconclusive: -8.21%,
COc1ccc(NC(=O)c2ccccc2)cc1,,"inconclusive: 29.1 µM [rising, partial curve]"
CCc1cccc(C)c1NC(=O)C1C2CCC(O2)C1C(=O)O (stereo not drawn),inconclusive: 1.05%,
CCNC(=S)N(Cc1cc2cc(C)ccc2[nH]c1=O)C1CCCC1,inconclusive: -7.7%,
O=C1NC2(CCCC2)N=C1c1ccc(Cl)cc1,inconclusive: 2.01%,
Cc1ccc(N/C=C(\C#N)S(=O)(=O)c2ccccc2)cc1,inconclusive: -1.88%,
O=C(CSc1nnc(Nc2ccccc2F)s1)NC1CCCC1,inconclusive: 5.08%,
OCCNc1nc(-c2ccccc2)c2cc(Cl)ccc2n1,inconclusive: 2.68%,
O=C(O)CCC(=O)Nc1nc2ccccc2s1,,"inconclusive: 18.4 µM [falling, partial curve]"
CC(=O)Nc1ccc(S(=O)(=O)NNC(=O)NC23CC4CC(CC(C4)C2)C3)cc1,,"inconclusive: 35.5 µM [falling, partial curve, poor fit]"
C=CCN1CCc2cc(O)c(O)cc2C(c2ccccc2)C1 (stereo not drawn),inconclusive: -3.76%,
Cc1ccsc1C(=O)OCC(=O)N1CCc2ccccc2C1,,"inconclusive: 35.5 µM [rising, single point]"
COc1ccc(NC(=S)N(CCN2CCOCC2)Cc2cc3cc4c(cc3[nH]c2=O)OCCO4)cc1,,"inconclusive: 11.2 µM [falling, partial curve]"
COc1ccc(C(=O)C(CN2CCOCC2)c2ccccc2)cc1 (stereo not drawn),inactive,
Cc1cc(CN2CCCCC2C(=O)Nc2ccc(Oc3cccnc3)cc2)oc1C (stereo not drawn),inconclusive: -1.14%,
COc1ccc2nc(SCC(=O)/C(C#N)=C(\C)N)[nH]c2c1,inconclusive: -2.34%,
CC1(C)CC(c2nc(-c3ccc(Br)cc3)cs2)CCS1 (stereo not drawn),inconclusive: 19.5%,
O=C(CCCN1C(=O)/C(=C/c2cccs2)SC1=S)NNC(=O)c1ccc(F)cc1,,"inconclusive: 0.517 µM [falling, full curve, poor fit]"
CC(C(=O)Nc1ccccn1)N1C(=O)c2ccccc2S1(=O)=O (stereo not drawn),inactive,

SMILES,"activity change, negative = inhibition",Potency
Cc1cc(C(=O)NNC(=S)NCC2CCCO2)cs1 (stereo not drawn),inconclusive: -0.839%,
O=C(CCC(=O)N1CCSc2ccccc21)NC1CCCCC1,inactive,
CCOc1ccc(NC(=O)c2nsc(Cl)c2Cl)cc1,inconclusive: -28.1%,
COc1ccc(/C=C/c2c(-c3ccc(OC)cc3)oc(=O)c3cc(OC)c(OC)cc23)cc1,inconclusive: -1.2%,
CC12CCC(c3c(C(=O)O)nn(-c4ccc(F)cc4)c31)C2(C)C (stereo not drawn),inconclusive: 7.46%,
CCC1(CC)NC(=O)N(CC(=O)Nc2ccc(OCc3ccccc3)cc2)C1=O,inconclusive: 5.73%,
COc1c(Cl)cc(Cl)cc1/C=N/NC(=O)c1nnn(-c2nonc2N)c1CN1CCC(C)CC1,inactive,
CCOC(=S)SCC(=O)Nc1nc(-c2ccccc2)cs1,,"inconclusive: 32.6 µM [falling, single point]"
COc1ccccc1N(C)S(=O)(=O)c1ccc(C)c(C(=O)Nc2nccs2)c1,inconclusive: 16%,
COc1ccc(-c2nc(C#N)c(NCc3ccc(F)cc3)o2)cc1OC,,"inconclusive: 14.6 µM [falling, single point]"
NS(=O)(=O)c1ccc(NC(=O)COC(=O)c2cn(-c3ccccc3)nc2-c2ccccc2)cc1,inconclusive: 11.2%,
O=C(CCl)N(C/C=C/c1ccccc1)c1ccc2c(c1)OCCO2,,"inconclusive: 2 µM [rising, partial curve, poor fit]"
CCOc1ccccc1CNC(=O)CCc1cn(CC)c2ccccc12,,"inconclusive: 35.5 µM [falling, partial curve, poor fit]"
CC(Oc1ccc(Cl)cc1Cl)C(=O)NCCCn1ccnc1 (stereo not drawn),inactive,
Cc1ccc(NC(=O)CSCC(=O)OCc2cc(=O)oc3cc(O)ccc23)c(C)c1,inconclusive: 1.23%,
COc1cc(C#Cc2c(-c3cncn3C)n(C)c3ccc(-c4ccc5cc[nH]c5c4)cc23)cc(OC)c1,inactive,
Cc1ccc2nc(C3CCCN(C(=S)Nc4cccc(C)c4C)C3)[nH]c2c1 (stereo not drawn),,"inconclusive: 10 µM [falling, partial curve, poor fit]"
Cc1ccc(S(=O)(=O)N2CCC(C(=O)NCc3ccccc3CN3CCCC3)CC2)cc1C,inconclusive: 0.871%,
CCN(CC(=O)Nc1cc(Cl)ccc1C)C(=O)c1cc([N+](=O)[O-])ccc1N1CCOCC1,inactive,
O=C(OCC#CCSc1nnc(-c2cccc3ccccc23)o1)c1ccc(Br)cc1,inconclusive: 9.23%,
CN1C(=O)C(C(=O)NC(C)(C)C)C2c3ccccc3OC13CCCCC23 (stereo not drawn),inconclusive: -10.2%,

SMILES,"activity change, negative = inhibition",Potency
NC(=O)C1CCN(c2nc(-c3cccs3)cs2)CC1,,"inconclusive: 20.6 µM [rising, partial curve, poor fit]"
COc1ccc2c(c1)c(/C=C/c1cc[n+](C)cc1)cn2C,inconclusive: 6.33%,
CCc1ccc2nc(SCC(=O)N3CC(=O)Nc4ccccc43)c(C#N)cc2c1,,"inconclusive: 5.17 µM [falling, partial curve]"
CC(=O)Cc1nsc(Nc2ccc(Cl)cc2)n1,inconclusive: 1.02%,
S=C(NCCOCCOCCNC(=S)Nc1ccccc1)Nc1ccccc1,inactive,
CCOc1ccc(C2N(c3cc(C)on3)C(=O)C3CCCN32)cc1OC (stereo not drawn),,"inconclusive: 22.4 µM [falling, partial curve, poor fit]"
CN(C)S(=O)(=O)c1cccc(-c2cn3ccccc3n2)c1,inconclusive: 5.82%,
Cc1ccc(N(CC(=O)NCc2ccccc2Cl)S(=O)(=O)c2cccs2)cc1,inconclusive: -1.34%,
O=C(Nc1ccccc1)Nc1nc(-c2ccc(F)cc2)cs1,inconclusive: -6.63%,
CC(=O)Nc1cccc(OCC(=O)NC(C)C(C)C)c1 (stereo not drawn),inconclusive: 5.22%,
N#CC1=C2SCC(O)(c3ccccc3)N2C(=O)CC1c1cccs1 (stereo not drawn),,"inconclusive: 35.5 µM [cytotoxic, single point]"
COC(=O)CSC(C(=O)Nc1ccc(C)c(C)c1)c1ccccc1 (stereo not drawn),inconclusive: 11.8%,
CCOC(=O)C1=C(C)N(c2ccc(Cl)cc2)C(=O)NC1c1cccc([N+](=O)[O-])c1 (stereo not drawn),inactive,
CC(C)(C)C(=O)N1CCN(c2nc3ccc(Cl)cc3s2)CC1,inconclusive: 14.5%,
CCc1cc2c(SCC(=O)N(CC)c3c(N)n(Cc4ccccc4)c(=O)[nH]c3=O)ncnc2s1,inconclusive: -0.0778%,
O=c1c2cnn(-c3ccccc3)c2nnn1Cc1ccccn1,inconclusive: -19.6%,
O=C(Nc1scc(-c2ccccc2)c1C(=O)O)c1ccc(F)cc1,,"inconclusive: 35.5 µM [rising, single point]"
CCn1c(C(c2ccccc2)c2ccccc2)n[nH]c1=S,,"inconclusive: 8.2 µM [rising, partial curve, poor fit]"
Cn1c(=N)n(CC(=O)c2cccs2)c2ccccc21,inconclusive: 4.05%,
Cc1cccc(N2CCN(C(=O)CCCCCn3c(=S)[nH]c4ccc(N5CCOCC5)cc4c3=O)CC2)c1C,inactive,
COc1ccccc1NC(=O)Nc1nc(C(C)(C)C)cs1,,"inconclusive: 22.4 µM [falling, partial curve]"

# Structures above that have a tert-butyl group:
SMILES,"activity change, negative = inhibition",Potency
CN1C(=O)C(C(=O)NC(C)(C)C)C2c3ccccc3OC13CCCCC23 (stereo not drawn),inconclusive: -10.2%,
CC(C)(C)C(=O)N1CCN(c2nc3ccc(Cl)cc3s2)CC1,inconclusive: 14.5%,
COc1ccccc1NC(=O)Nc1nc(C(C)(C)C)cs1,,"inconclusive: 22.4 µM [falling, partial curve]"

# The results go on.

SMILES,"activity change, negative = inhibition",Potency
Cc1ccccc1NC(=S)N(Cc1ccccn1)Cc1ccccc1Cl,inactive,
CCN(CC)c1ccc(NC(=O)COC(=O)CCC(=O)c2ccc(F)cc2)cc1,,"inconclusive: 23.1 µM [rising, single point]"
CC(CNc1nc2ccc(Cl)cc2n2cnnc12)c1ccccc1 (stereo not drawn),inconclusive: 5.53%,
CCOc1ccc(N2CC(O)(c3ccc(F)cc3)[N+]3=C2CCCC3)cc1 (stereo not drawn),inactive,
COc1cc2c(cc1OC)CN(C(=O)c1ccc3nc[nH]c3c1)CC2,,"inconclusive: 22.4 µM [falling, single point]"
CCOc1ccccc1-n1c(SCC(=O)Nc2nccs2)nnc1-c1ccoc1C,inconclusive: 3.27%,
CN(c1ccccc1)S(=O)(=O)c1cccc(C(=O)NC2CCCC2)c1,inactive,
COc1ccc(CNC(=O)c2nc(S(=O)(=O)Cc3ccccc3)ncc2Cl)cc1,inconclusive: 27.7%,
Cc1ccc(SCC(=O)Nc2cccc(-c3nnc(-c4ccco4)o3)c2)cc1,inactive,
COc1ccc([N+](=O)[O-])cc1NC(=O)Cc1ccc(Cl)cc1,inactive,
O=[N+]([O-])c1cccc(-c2csc(CS(=O)(=O)Cc3ccco3)n2)c1,inconclusive: 6.29%,
COCCNC(=O)c1ccc(CSCc2cccc(Cl)c2)o1,inactive,
Cc1cccc(OCCOCCN2CCOCC2)c1C,inconclusive: 6.24%,
C/C(NCc1cccnc1)=C(\C#N)C(=O)NCc1ccccc1,inconclusive: 1.45%,
Oc1c(C=Nc2ccccc2)sc2ccccc12,inactive,
O=C(c1cc2ccccc2oc1=O)N1CCN(S(=O)(=O)c2ccccc2)CC1,inconclusive: 2.33%,
C/C(=N\NC(=O)c1ccc(Cl)c(Cl)c1)c1ccccn1,inconclusive: -0.377%,
COc1ccccc1OCc1ccc(C(=O)n2nc(C)c(Cl)c2C)o1,inconclusive: -23.9%,
CCCNCc1cc(OCC)c(OCC(=O)Nc2ccccc2)cc1Br,inconclusive: 2.67%,
Cc1ccsc1C1Nc2ccc3ncccc3c2C2=C1C(=O)CC(C)(C)C2 (stereo not drawn),,"inconclusive: 22.4 µM [falling, partial curve, poor fit]"

# 3 records drawn at random from the list so far, as already listed:
SMILES,"activity change, negative = inhibition",Potency
CC(CNc1nc2ccc(Cl)cc2n2cnnc12)c1ccccc1 (stereo not drawn),inconclusive: 5.53%,
C/C(=N\NC(=O)c1ccc(Cl)c(Cl)c1)c1ccccn1,inconclusive: -0.377%,
COc1ccc([N+](=O)[O-])cc1NC(=O)Cc1ccc(Cl)cc1,inactive,
